In patent publication US20050191294A1, “Compositions and methods of use of targeting peptides for diagnosis and therapy” (Board of Regents, The University of Texas System, priority 2003, published 2005) one finds binding data, which are given here for 2 molecules.

The target of experiment [1] is recombinant GRP78 (Stressgen). Put plainly: phage binding to proteins immobilized on microtiter wells.
Experiment [2] deals with recombinant GRP78 (Stressgen). The experiment in a line: discussion of the in vitro phage binding assay.

Results are given in words; binding and its absence hold for the method and conditions named. A result given as binding can be weak or reduced; the word gives no strength.

On to WDLAWMFRLPVG (peptide, not shown: large carriers) [… (SEQ ID NO:7)-phage], for which the binding entry in experiment [1] and in experiment [2] was “binds” throughout.

WIFPWIQL (peptide, not shown: large carriers) [WIFPWIQL (SEQ ID NO:6)-phage]: the binding result in experiment [1] and in experiment [2] was “binds” each time.
